In PubChem BioAssay (NCATS):
Most of the hits are listed elsewhere, so they are rarer here than in the full data. Results filed as inconclusive are left out. The source made the active and inactive calls. The call rests on the fitted dose curve; in most records, active means well fitted inhibition curve with a large enough effect; inconclusive means small, poorly fitted or top-dose-only effect; inactive means flat fitted curve, though single readings scatter.

Key:
Assay in all cases: qHTS profiling for inhibitors of Plasmodium falciparum proliferation (AID 504749);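 further: 0% = DMSO vehicle and full inhibition = artemisinin control; nearly all actives have a fitted effect of over 60% in size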
Conditions in all cases: P. falciparum in erythrocytes, SYBR Green DNA, 72 h; at 28.7 µM (top of the series)
FAB9 = tested on: FAB9
Procedure, shortened: (§1)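 Three-day growth assay of blood-stage parasites in erythrocytes (0.3% parasitemia, 2.5% hematocrit) at 37 C, 5% CO2, quantified by SYBR Green DNA staining after overnight detergent lysis.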

HB3 = tested on: HB3
Procedure, shortened: as §1

ICS = tested on: ICS
Procedure, shortened: as §1

JCK = tested on: JCK
Procedure, shortened: as §1

N140 = tested on: N140
Procedure, shortened: as §1

P93_24 = tested on: P93_24
Procedure, shortened: as §1

P94_40 = tested on: P94_40
Procedure, shortened: as §1

PAD = tested on: PAD
Procedure, shortened: as §1

PC15 = tested on: PC15
Procedure, shortened: as §1

PC49 = tested on: PC49
Procedure, shortened: as §1

Measured: activity, negative = inhibition

CC(C)(C)c1ccc(O)cc1
inactive: FAB9 = 8.6% | HB3 = 2.68% | ICS 18.9% | JCK 4.55% | N140 = 4.8% | P93_24 = -4.12% | P94_40 = 5.04% | PAD 15.5% | PC15 = -2.44% | PC49 = 3.92%
